Drawing on patent US20200087367A1 (ACCELERON PHARMA, published 2020), this text covers binding for 7 molecules.

Amino acid sequences for entries named in this document (tags omitted). A change or cut given only in a name is not applied to a line headed by its entry.
UniProt P27037: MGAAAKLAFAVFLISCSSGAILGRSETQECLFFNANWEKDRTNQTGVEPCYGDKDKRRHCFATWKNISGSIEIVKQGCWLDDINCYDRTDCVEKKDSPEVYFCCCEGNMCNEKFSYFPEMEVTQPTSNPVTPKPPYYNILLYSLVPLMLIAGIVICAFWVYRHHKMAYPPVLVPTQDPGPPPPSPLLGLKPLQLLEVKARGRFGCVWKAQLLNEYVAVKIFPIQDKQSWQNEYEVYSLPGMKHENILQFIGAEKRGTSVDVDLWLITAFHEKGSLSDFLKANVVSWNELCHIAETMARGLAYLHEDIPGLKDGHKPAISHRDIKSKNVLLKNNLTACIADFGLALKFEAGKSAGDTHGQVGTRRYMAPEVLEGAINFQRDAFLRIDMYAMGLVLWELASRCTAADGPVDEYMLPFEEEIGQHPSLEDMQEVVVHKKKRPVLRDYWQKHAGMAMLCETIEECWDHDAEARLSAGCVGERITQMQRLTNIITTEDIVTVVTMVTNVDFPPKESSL

Results are given in words; binding and its absence hold for the method and conditions named. Some results given as binding are weak or reduced against the parent protein; the word gives no strength.

Assay [1] has as its target T1, BMP6 (human, UniProt P22004 382-513, limits assumed).
T1 sequence (looked up): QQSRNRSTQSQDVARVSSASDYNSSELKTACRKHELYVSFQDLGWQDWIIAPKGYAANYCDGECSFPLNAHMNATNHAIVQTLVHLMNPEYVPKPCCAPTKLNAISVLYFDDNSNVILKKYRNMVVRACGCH
In words: SPR (Biacore), ligand amine-coupled to chip, Fc fusion injected. In general terms: SPR reads the build-up and loss of mass on a sensor chip optically.

Assay [2] addresses T1, BMP6. In words: SPR (Biacore), ligand amine-coupled to CM5 chip, Fc fusion injected.
Assay [3] concerns the target T2, BMP9 (human, UniProt Q9UK05 320-429).
T2 construct: also called hBMP-9; hBMP9
T2 sequence (looked up): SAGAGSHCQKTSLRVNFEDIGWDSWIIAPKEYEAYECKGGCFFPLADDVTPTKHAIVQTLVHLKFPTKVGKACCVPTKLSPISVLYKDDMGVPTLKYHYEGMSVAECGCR
Kind of assay: SPR, captured hENG-hFc, soluble BMP9 at 100 nM; ++++ = KD <1 nM.

The target of assay [4] is T3, BMP10 (human, UniProt O95393 317-424).
T3 construct: also called hBMP-10; hBMP10
T3 sequence: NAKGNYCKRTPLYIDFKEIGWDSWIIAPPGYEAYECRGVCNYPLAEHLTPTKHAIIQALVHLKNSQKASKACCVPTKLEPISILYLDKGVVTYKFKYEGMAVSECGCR
In words: SPR, captured hENG-hFc, soluble BMP10 at 100 nM; ++++ = KD <1 nM.

The target in assay [5] is T1, BMP6. In words: SPR (Biacore), ligand amine-coupled to chip, Fc fusion injected. This is another data set of the same source.
Assay [6] has as its target T1, BMP6. Kind of assay: SPR (Biacore), BMP10pro-Fc captured by anti-Fc antibody, ligand injected.
Assay [7] deals with T3, BMP10. In words: SPR kinetics.
For assay [8], the target named is T3, BMP10. In words: SPR ligand screen.
The target in assay [9] is T2, BMP9. In words: SPR ligand screen.
In assay [10] the target is T2, BMP9. In words: SPR ligand screen, hBMP-9 at 5 nM; ++++ = KD <1 nM.
In assay [11] the target is T3, BMP10. Kind of assay: SPR ligand screen, hBMP-10 at 5 nM; ++++ = KD <1 nM.

Consider “ActRIIA-mFc (from UniProt P27037 21-135) (Fc fusion)”, for which, in the assay with BMP6 [1], the binding entry is “binds”.

B1: ActRIIB-mFc (Fc fusion, not shown: a dimerising Fc or GST)
chain: GRGEAETRECIYYNANWELERTNQSGLERCEGEQDKRLHCYASWRNSSGTIELVKKGCWLDDFNCYDRQECVATEENPQVYFCCCEGNFCNERFTHLPEAGGPEVTYEPPPTAPT
As for B1, the binding entry in the assay with BMP6 [2] is listed as “binds”.

B2: hENG(26-581)-hFc (Fc fusion, not shown: a dimerising Fc or GST)
chain: ETVHCDLQPVGPERGEVTYTTSQVSKGCVAQAPNAILEVHVLFLEFPTGPSQLELTLQASKQNGTWPREVLLVLSVNSSVFLHLQALGIPLHLAYNSSLVTFQEPPGVNTTELPSFPKTQILEWAAERGPITSAAELNDPQSILLRLGQAQGSLSFCMLEASQDMGRTLEWRPRTPALVRGCHLEGVAGHKEAHILRVLPGHSAGPRTVTVKVELSCAPGDLDAVLILQGPPYVSWLIDANHNMQIWTTGEYSFKIFPEKNIRGFKLPDTPQGLLGEARMLNASIVASFVELPLASIVSLHASSCGGRLQTSPAPIQTTPPKDTCSPELLMSLIQTKCADDAMTLVLKKELVAHLKCTITGLTFWDPSCEAEDRGDKFVLRSAYSSCGMQVSASMISNEAVVNILSSSSPQRKKVHCLNMDSLSFQLGLYLSPHFLQASNTIEPGQQSFVQVRVSPSVSEFLLQLDSCHLDLGPEGGTVELIQGRAAKGNCVSLLSPSPEGDPRFSFLLHFYTVPIPKTGTLSCTVALRPKTGSQDQEVHRTVFMRLNIISPDLSG
B2: the binding entry with BMP9 [3] and with BMP10 [4] was “binds” in each case.

B3: ActRIIB(L79D 25-131)-mFc (Fc fusion)
chain: ETRECIYYNANWELERTNQSGLERCEGEQDKRLHCYASWRNSSGTIELVKKGCWDDDFNCYDRQECVATEENPQVYFCCCEGNFCNERFTHLPEAGGPEVTYEPPPT
notes: not shown: linker and mouse Fc domain
As to B3, in the assay with BMP6 [5], the binding result was “binds”.

B4: BMP10pro(22-315)-mFc (Fc fusion, not shown: a dimerising Fc or GST)
chain: SPIMNLEQSPLEEDMSLFGDVFSEQDGVDFNTLLQSMKDEFLKTLNLSDIPTQDSAKVDPPEYMLELYNKFATDRTSMPSANIIRSFKNEDLFSQPVSFNGLRKYPLLFNVSIPHHEEVIMAELRLYTLVQRDRMIYDGVDRKITIFEVLESKGDNEGERNMLVLVSGEIYGTNSEWETFDVTDAIRRWQKSGSSTHQLEVHIESKHDEAEDASSGRLEIDTSAQNKHNPLLIVFSDDQSSDKERKEELNEMISHEQLPELDNLGLDSFSSGPGEEALLQMRSNIIYDSTARIR
For B4, the binding result with BMP6 [6] was “binds”.

B5: hENG(26-437)-hFc (Fc fusion, not shown: a dimerising Fc or GST)
chain: ETVHCDLQPVGPERGEVTYTTSQVSKGCVAQAPNAILEVHVLFLEFPTGPSQLELTLQASKQNGTWPREVLLVLSVNSSVFLHLQALGIPLHLAYNSSLVTFQEPPGVNTTELPSFPKTQILEWAAERGPITSAAELNDPQSILLRLGQAQGSLSFCMLEASQDMGRTLEWRPRTPALVRGCHLEGVAGHKEAHILRVLPGHSAGPRTVTVKVELSCAPGDLDAVLILQGPPYVSWLIDANHNMQIWTTGEYSFKIFPEKNIRGFKLPDTPQGLLGEARMLNASIVASFVELPLASIVSLHASSCGGRLQTSPAPIQTTPPKDTCSPELLMSLIQTKCADDAMTLVLKKELVAHLKCTITGLTFWDPSCEAEDRGDKFVLRSAYSSCGMQVSASMISNEAVVNILSSSSPQR
On to B5, for which the binding entry with BMP10 [7], with BMP10 [8], with BMP9 [9], with BMP9 [10], in the assay with BMP10 [11] and in the assay with BMP9 [3] was “binds” each time. In the assay with BMP10 [4], the binding result is recorded as “binds”.

B6: BMP10pro(22-312)-mFc (Fc fusion, not shown: a dimerising Fc or GST)
chain: SPIMNLEQSPLEEDMSLFGDVFSEQDGVDFNTLLQSMKDEFLKTLNLSDIPTQDSAKVDPPEYMLELYNKFATDRTSMPSANIIRSFKNEDLFSQPVSFNGLRKYPLLFNVSIPHHEEVIMAELRLYTLVQRDRMIYDGVDRKITIFEVLESKGDNEGERNMLVLVSGEIYGTNSEWETFDVTDAIRRWQKSGSSTHQLEVHIESKHDEAEDASSGRLEIDTSAQNKHNPLLIVFSDDQSSDKERKEELNEMISHEQLPELDNLGLDSFSSGPGEEALLQMRSNIIYDSTA
On to B6, for which the binding result with BMP6 [6] is reported as “binds”.
